For 2 substances, binding results are on record in PMC13038412, “Hetero-oligomerization drives structural plasticity of eukaryotic peroxiredoxins” (Nature Chemical Biology, 2026).

Protein sequences, listed by entry. Tags and fused reporters are not part of them. Lines headed by an entry give the natural chain unless they say otherwise; changes in a name come on top.
UniProt P34760: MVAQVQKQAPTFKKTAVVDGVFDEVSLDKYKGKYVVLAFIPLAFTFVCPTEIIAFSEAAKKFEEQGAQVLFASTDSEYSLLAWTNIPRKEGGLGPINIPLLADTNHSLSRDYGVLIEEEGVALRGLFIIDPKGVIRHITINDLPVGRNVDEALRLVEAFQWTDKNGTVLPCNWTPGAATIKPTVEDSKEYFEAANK

Assay [1] concerns the target T1, roGFP2-AtBAS1A (A. thaliana) (UniProt Q96291).
T1 sequence: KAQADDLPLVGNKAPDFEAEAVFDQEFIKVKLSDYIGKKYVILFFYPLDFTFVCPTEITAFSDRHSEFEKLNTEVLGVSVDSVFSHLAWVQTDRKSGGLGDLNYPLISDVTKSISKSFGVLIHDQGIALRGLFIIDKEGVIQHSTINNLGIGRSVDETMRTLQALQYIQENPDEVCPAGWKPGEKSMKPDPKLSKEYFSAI
The experiment in a line: native gel or EMSA; clear native PAGE of lysates from Δtsa1Δtsa2 yeast coexpressing a roGFP2-peroxiredoxin fusion with an empty vector or an unfused peroxiredoxin; imaged for GFP fluorescence. In general terms: Mobility shift assays separate free from complexed probe on a gel.

In a further assay the target is T2, His6-Tsa2 (S. cerevisiae, UniProt Q04120 1-196).
T2 construct: Tsa2, Prx1/AhpC-type peroxiredoxin of Saccharomyces cerevisiae; TSA2 from pET15b/His6-TSA2; calculated mass of His6-Tsa2 23.8 kDa; also called His6-tagged Tsa2; His-Tsa2; source: E. coli SHuffle T7 Express, purified (Ni-NTA) from pET15b; or coexpressed with Strep-Tsa1 / Strep-Tsa1ΔCR from pCOLADuet and tandem purified (Ni-NTA, StrepTactin); not shown: His6, N-terminal, kept
T2 sequence (looked up): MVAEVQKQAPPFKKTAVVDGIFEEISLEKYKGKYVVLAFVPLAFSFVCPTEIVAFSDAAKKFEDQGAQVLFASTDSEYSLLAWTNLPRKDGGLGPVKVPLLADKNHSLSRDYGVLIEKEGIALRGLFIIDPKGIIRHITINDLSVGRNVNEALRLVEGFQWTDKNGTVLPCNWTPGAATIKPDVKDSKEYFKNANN
In words: pull-down + other: nonreducing SDS-PAGE of disulfide-linked dimers; coexpressed in E. coli, tandem-affinity copurification; samples treated with 10 mM NEM, nonreducing SDS-PAGE, western blot.

Results are given in words; binding and its absence hold for the method and conditions named. Binding can be weak; no strength is given. Sequences can lack the tags named with a protein. For some assays here: Binding seen in cells or lysates may run through a third protein.

As to AtBAS1B (A. thaliana) (enzyme), the binding result in assay [1] was “binds”. With “Strep-Tsa1ΔCR (from UniProt P34760) (enzyme)”, the binding result with His6-Tsa2 was “binds”.
